Results deposited as PubChem BioAssay AID1259254 (NCATS, 2017).
This is an unselected part of about 59,000 reagents tested. In the full data, about 1,550 (2.6%) were called active. 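G2 share is only a proxy for re-replication; each gene was hit by three separate siRNAs, and active genes were retested.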 Raw values vary from plate to plate and are shown uncorrected. Not stated in the record: the amount of reagent.

Screen: 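Gene knock-downs that lead to re-replication, shown by excess G2 DNA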 (primary screen)
Cells: human HCT116 colorectal cancer cells
Reagent: single siRNA against human genes
Time to read-out: 3 days
Measurement: 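Nuclei stained with Hoechst and imaged; cell-cycle phase assigned by DNA content; G2 share scaled per plate, non-targeting siRNA 0%, GMNN siRNA 100%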
Direction: G2 robust z-score and G2 cells, % of GMNN control: higher = more G2 cells, more excess DNA replication; raw share of cells in G2: higher = larger share of cells with G2 DNA content
Hit rule: 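Active siRNAs have a G2 robust z of 5 or more median absolute deviations over the median, which in these data means about 38% or higher of GMNN control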

The first 6 entries, to show the layout:
gene knocked down	PubChem SID	G2 robust z-score	G2 cells, % of GMNN control	raw share of cells in G2 (%)	Call
ADAMTS7 (GeneID 11173)	SID160730118	-0.0848	2.37	6.39	inactive
ADAMTS7 (GeneID 11173)	SID160730119	4.75	36.4	17.8	inactive
ADAMTS7 (GeneID 11173)	SID160730120	-0.263	1.11	4.33	inactive
MBTPS1 (GeneID 8720)	SID160762360	-0.00161	2.96	6.59	inactive
MBTPS1 (GeneID 8720)	SID160762467	0.108	3.73	6.23	inactive
MBTPS1 (GeneID 8720)	SID160762570	-0.0758	2.43	4.82	inactive

The listing, from the start:
gene knocked down	PubChem SID	G2 robust z-score	G2 cells, % of GMNN control	raw share of cells in G2 (%)	Call
ADAMTS7 (GeneID 11173)	SID160730118	-0.0848	2.37	6.39	inactive
ADAMTS7 (GeneID 11173)	SID160730119	4.75	36.4	17.8	inactive
ADAMTS7 (GeneID 11173)	SID160730120	-0.263	1.11	4.33	inactive
MBTPS1 (GeneID 8720)	SID160762360	-0.00161	2.96	6.59	inactive
MBTPS1 (GeneID 8720)	SID160762467	0.108	3.73	6.23	inactive
MBTPS1 (GeneID 8720)	SID160762570	-0.0758	2.43	4.82	inactive
MTUS2 (GeneID 23281)	SID160735912	3.25	25.8	14.1	inactive
MTUS2 (GeneID 23281)	SID160735913	-0.427	-0.0337	3.92	inactive
MTUS2 (GeneID 23281)	SID160735914	0.461	6.21	5.47	inactive
EZR (GeneID 7430)	SID160718757	-0.628	-1.45	3.72	inactive
EZR (GeneID 7430)	SID160718758	0.294	5.03	7.72	inactive
EZR (GeneID 7430)	SID160718759	-0.398	0.17	4.53	inactive
GPR34 (GeneID 2857)	SID160773571	0.91	9.37	9.19	inactive
GPR34 (GeneID 2857)	SID160773581	0.885	9.19	7.73	inactive
GPR34 (GeneID 2857)	SID160773591	2.64	21.6	9.88	inactive
LALBA (GeneID 3906)	SID160776487	3.85	30.1	17	inactive
LALBA (GeneID 3906)	SID160776488	-0.488	-0.466	3.04	inactive
LALBA (GeneID 3906)	SID160776489	-0.49	-0.482	5.28	inactive
WT1-AS (GeneID 51352)	SID160740670	0.446	6.11	5.79	inactive
WT1-AS (GeneID 51352)	SID160740671	0.188	4.29	6.08	inactive
WT1-AS (GeneID 51352)	SID160740672	-0.653	-1.63	2.65	inactive
TYROBP (GeneID 7305)	SID160718496	-0.356	0.462	5.79	inactive
TYROBP (GeneID 7305)	SID160718497	-0.184	1.68	5.03	inactive
TYROBP (GeneID 7305)	SID160718498	-0.253	1.18	4.7	inactive
CTSH (GeneID 1512)	SID160730658	-0.521	-0.699	5.32	inactive
CTSH (GeneID 1512)	SID160750660	-0.721	-2.11	4.16	inactive
CTSH (GeneID 1512)	SID160750670	-0.434	-0.0881	3.88	inactive
ADRB2 (GeneID 154)	SID160715053	-1.34	-6.46	3.53	inactive
ADRB2 (GeneID 154)	SID160715064	1.15	11.1	8.38	inactive
ADRB2 (GeneID 154)	SID160715075	0.444	6.09	5.14	inactive
CES5AP1 (GeneID 649264)	SID160770403	-0.82	-2.81	2.1	inactive
CES5AP1 (GeneID 649264)	SID160770404	0.633	7.42	5.91	inactive
CES5AP1 (GeneID 649264)	SID160770405	-0.2	1.56	3.24	inactive
FADS1 (GeneID 3992)	SID160776644	2.95	23.7	11	inactive
FADS1 (GeneID 3992)	SID160776645	-0.622	-1.41	4.81	inactive
FADS1 (GeneID 3992)	SID160776646	-0.0707	2.47	6.45	inactive
CDH19 (GeneID 28513)	SID160738846	-0.485	-0.447	4.04	inactive
CDH19 (GeneID 28513)	SID160738847	-1.29	-6.13	1.98	inactive
CDH19 (GeneID 28513)	SID160738848	-1.19	-5.44	3.7	inactive
C2CD2L (GeneID 9854)	SID160723261	0.769	8.38	9.12	inactive
C2CD2L (GeneID 9854)	SID160723262	-0.71	-2.03	3.1	inactive
C2CD2L (GeneID 9854)	SID160723263	-0.571	-1.05	3.02	inactive
SETD3 (GeneID 84193)	SID160734737	-0.58	-1.11	3.09	inactive
SETD3 (GeneID 84193)	SID160751870	1.82	15.8	9.36	inactive
SETD3 (GeneID 84193)	SID160751872	-0.0295	2.76	4.28	inactive
SETD3 (GeneID 84193)	SID160751873	-0.153	1.89	2.98	inactive
SETD3 (GeneID 84193)	SID160773666	-0.301	0.85	4	inactive
SETD3 (GeneID 84193)	SID160773667	-0.649	-1.6	2.84	inactive
USP45 (GeneID 85015)	SID160753121	0.705	7.93	8.95	inactive
USP45 (GeneID 85015)	SID160753122	1.34	12.4	8.57	inactive
USP45 (GeneID 85015)	SID160753123	-1.01	-4.14	2.72	inactive
PADI3 (GeneID 51702)	SID160741235	-1.31	-6.23	3.13	inactive
PADI3 (GeneID 51702)	SID160741236	0.238	4.64	5.96	inactive
PADI3 (GeneID 51702)	SID160741237	-1.04	-4.38	2.12	inactive
SEMA4F (GeneID 10505)	SID160728597	0.0851	3.57	7.24	inactive
SEMA4F (GeneID 10505)	SID160728599	-1.57	-8.11	3.28	inactive
SEMA4F (GeneID 10505)	SID160728600	-0.494	-0.506	3.68	inactive
KLHL32 (GeneID 114792)	SID160754991	1.98	16.9	10.9	inactive
KLHL32 (GeneID 114792)	SID160754992	-0.732	-2.18	2.68	inactive
KLHL32 (GeneID 114792)	SID160754993	0.297	5.06	3.3	inactive
IL17B (GeneID 27190)	SID160738532	0.193	4.33	5.51	inactive
IL17B (GeneID 27190)	SID160738533	0.454	6.16	6.88	inactive
IL17B (GeneID 27190)	SID160738534	1.6	14.2	7.75	inactive
FAM216A (GeneID 29902)	SID160739261	-0.849	-3.01	2.71	inactive
FAM216A (GeneID 29902)	SID160739262	-0.587	-1.16	4.11	inactive
FAM216A (GeneID 29902)	SID160739263	2.31	19.2	9.3	inactive
OLR1 (GeneID 4973)	SID160778371	-0.938	-3.63	1.96	inactive
OLR1 (GeneID 4973)	SID160778372	-1.3	-6.2	2.86	inactive
OLR1 (GeneID 4973)	SID160778373	-0.0295	2.76	5.87	inactive
